Test results as given in patent publication US20050164323A1, “Methods of treating asthma” (Wyeth, priority 2003, published 2005).
Part of at least one peptide drawing is inferred or uncertain, most often the ends. For part of these data: The name of at least one read-out is uncertain. Non-standard residues stand in square brackets, D forms with d. Residues, ends and D or L forms follow the SMILES beside them. pS = N[C@@H](COP(=O)(O)O)C(=O)O

Amino acid sequences for entries named in this document (tags omitted). Chains listed by the source or under a name are the forms on record and can include a tag or linker.
UniProt Q04759, with tags, fused parts or gaps: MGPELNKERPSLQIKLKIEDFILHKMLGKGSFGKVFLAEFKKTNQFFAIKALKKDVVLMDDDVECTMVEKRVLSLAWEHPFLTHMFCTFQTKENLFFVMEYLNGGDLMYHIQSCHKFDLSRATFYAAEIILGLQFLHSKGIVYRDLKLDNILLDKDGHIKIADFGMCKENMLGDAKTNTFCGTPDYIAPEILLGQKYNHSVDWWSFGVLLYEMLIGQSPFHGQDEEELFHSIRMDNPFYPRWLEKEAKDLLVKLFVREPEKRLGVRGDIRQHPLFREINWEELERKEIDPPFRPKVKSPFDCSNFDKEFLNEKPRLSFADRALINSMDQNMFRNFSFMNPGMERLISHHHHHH

Key:
[1] = target: T1, PKC-θ KD (Homo sapiens, UniProt Q04759); experiment: coupled PK/LDH assay: steady-state kinetics, product and dead-end inhibition of PKC-θ KD; format: biochemical
T1 construct: PKC-θ KD (amino acid residues 362 to 706) was cloned into a pET16b expression vector; hexa-histidine (C); Met-Gly (non-native N-terminal residues) (N); made in house; host or cells: E. coli BL21-DE3 (pET16b)

[2] = target: T1, PKC-θ KD; experiment: solvent viscosity studies (sucrose, Ficoll 400) on steady state kinetic parameters; format: biochemical; conditions: from viscosity analysis
Procedure: Next, solvent viscosity studies were performed. Steady state kinetic parameters were determined in the buffer described above for the enzyme kinetics assays containing varied sucrose (0-35%) or Ficoll 400 (0-8%). Relative solvent viscosities (η^ref) were determined in triplicate relative to 25 mM HEPES pH 7.5, 10 mM MgCl2, 2 mM DTT and 100 mM NaCl at 25° C. using an Ostwald viscometer. Buffer with no viscogen is indicated with a superscript of 0. The coupling enzyme system was unaffected by the presence of these viscogens. Thio effect studies with ATPγS and product inhibition studies with ADP were analyzed on a Hewlett Packard series 1100 HPLC using a Phenomenex Auga […] C18 124 A^0 50 mm×4.60 […] column (00B-4299-E0). Phosphorylated peptide was separated from non-phosphorylated peptide using a gradient of 0% to 100% 20 mM phosphate pH 8.8/acetonitrile (50/50). The fluorescein-labeled peptide was detected by excitation at 485 nm and monitoring the fluorescence emission at 530 nm.
To determine if the chemical step is the lone contributor to the rate of the reaction, the effect of solvent viscosity on the steady state kinetic parameters for PKC-θ was determined. Two types of viscogens were employed in this study, the microviscogen sucrose and the macroviscogen Ficoll-400. […]

[3] = varied peptide substrate, saturating ATP

## CC(C)C[C@H](NC(=O)[C@H](COP(=O)(O)O)NC(=O)CNC(=O)[C@H](CCCCN)NC(=O)[C@H](CCCNC(=N)N)NC(=O)[C@H](C)NC(=O)[C@@H](N)Cc1ccccc1)C(=O)N[C@@H](CCCNC(=N)N)C(=O)N[C@@H](CCC(N)=O)C(=O)O [phosphopeptide1] (H-FARKG[pS]LRQ-OH)
[1]; against ATP at non-saturating peptide 3 (0.5 mM)
  inhibition pattern in words: uncompetitive inhibitor
[1]; against peptide 3 at non-saturating ATP
  inhibition pattern in words: uncompetitive pattern
[1]; against peptide 3 at saturating ATP
  inhibition pattern in words: non-competitive inhibitor
[1]; varied substrate ATP, peptide3 held at 0.5 mM, 100 mM NaCl
  pattern: uc (uc, uncompetitive)
[1]; varied substrate peptide3, ATP held at 0.1 mM, 100 mM NaCl
  pattern: uc (uc, uncompetitive)
[1]; varied substrate peptide3, saturating ATP, 100 mM NaCl
  pattern: nc (nc, noncompetitive)

## CC(C)C[C@H](NC(=O)[C@H](CO)NC(=O)CNC(=O)[C@H](CCCCN)NC(=O)[C@H](CCCNC(=N)N)NC(=O)[C@H](C)NC(=O)[C@@H](N)Cc1ccccc1)C(=O)N[C@@H](CCCNC(=N)N)C(=O)N[C@@H](CCC(N)=O)C(=O)O [peptide1] (H-FARKGSLRQ-OH)
[2]
  stickiness of substrate: sticky substrate
[1]; 0 mM NaCl
  appKm peptide1: 6.4 ± 4.2 µM
[1]; 50 mM NaCl
  appKm peptide1: 6.7 ± 2.8 µM
[1]; 100 mM NaCl
  appKm peptide1: 3.2 ± 1.0 µM
[1]; 250 mM NaCl
  appKm peptide1: 9.0 ± 1.2 µM
[1]; high peptide concentrations
  substrate inhibition: observed
[1]; [3]
  appKm: 6.5 ± 0.8 µM
[1]; varied peptide substrate, saturating ATP, listed as Peptide 1
  appKm: 6.5 µM

## RTPKLARQASIELPSM [peptide4, substrate derived from the phosphorylation site in lymphocyte-specific protein-1]
[1]; [3]
  kcat/Km: 58 000 M^−1s^−1
